Measurements published in PubChem BioAssay AID1347076 (National Center for Advancing Translational Sciences (NCATS), 2019).
About 13,000 (3.2%) of roughly 400,000 compounds were called active. Inconclusive results, whose numbers are uncertain, are shown with a selection of clear calls. The call rests on the fitted dose curve; in most records, active means well fitted cell-killing curve with a large enough effect; inconclusive means small, poorly fitted or top-dose-only effect, or effect the other way; inactive means flat fitted curve, though single readings scatter. Potencies beside an inconclusive call are fits to weak or partial responses and may not hold up.
On the % scale 0 is the no-effect control and ±100 the full control effect; potency means the concentration at half of the fitted maximal effect.

Assay: qHTS assay for MDR1-selective chemotherapeutics: Primary screen using the drug-selected MDR subline cells KB-V1; further: nearly all actives have a fitted effect of over 60% in size
Details: KB-V1 MDR cells viability, CellTiter-Glo, 72 h; activity change, negative = cytotoxicity: at 46.1 µM (top of the series)
Method in brief: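 In this primary screen, KB-V1 cells overexpressing P-gp are incubated with library compounds (lowest to highest concentration) for 72 h at 37 degrees C before a luminescent ATP viability read.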
With COc1ccc(-c2cc(C(N)=O)nc(N3CCCCCC3)n2)cc1 the activity change, negative = cytotoxicity was inconclusive: -34.1% [cytotoxic]. With COc1ccc(S(=O)(=O)NCc2nc3nc(C)cc(C)n3n2)cc1 the Potency was inconclusive: 16.4 µM [rising, single point]. In the case of COc1ccc(CCCNC(=O)C2Cc3c(-c4cccc(C(N)=O)c4)ccnc3O2)cc1 (stereo not given), the “activity change, negative = cytotoxicity” value is reported as inactive: -6.13%. In the case of CC(C)NCCOCCOc1ccc(Cl)cc1Br, the Potency is reported as inconclusive: 8.2 µM [cytotoxic, partial curve]. With CCC(C)(C)C1CCC2(CC1)NC(=O)N(CC(=O)N(C)CCOc1ccc(Cl)cc1)C2=O (stereo not given) the Potency was inconclusive: 5.8 µM [cytotoxic, full curve]. In the case of CC(=O)/C(=N\Nc1ccc(Cl)cc1)Sc1nnc(-c2ccccc2)n1-c1ccccc1, the Potency is reported as inconclusive: 7.31 µM [cytotoxic, partial curve, poor fit]. For COc1ccc(C(CNc2ncnc3sc(C)c(C)c23)N(C)C)cc1 (stereo not given), the Potency was active: 10.3 µM. In the case of COc1ccc(/C=C/C(=O)Nc2cccc(C(C)=O)c2)cc1, the Potency is reported as inconclusive: 16.4 µM [cytotoxic, partial curve, poor fit]. For Cc1[nH]c2ccccc2c1SCC(=O)O, the Potency was inconclusive: 29.1 µM [rising, single point]. For COc1cccc(CNC(=O)c2ccc(OCC(=O)N3CCOCC3)c(OC)c2)c1, the “activity change, negative = cytotoxicity” value was inactive: 12.5%. In the case of Cc1ccccc1OCc1nc2c3c(ncn2n1)-c1ccccc1CC31CCCC1, the Potency is reported as inconclusive: 7.31 µM [cytotoxic, partial curve]. With CCc1cccc(NC(=O)Cc2ccc([N+](=O)[O-])cc2)c1 the Potency was inconclusive: 14.6 µM [cytotoxic, partial curve]. For Cc1nn(C)c(C(=O)Nc2ccn(Cc3ccccc3F)n2)c1[N+](=O)[O-], the Potency was active: 25.9 µM. With CC1=NN2C(=N)/C(=C\c3cc(C)n(-c4cccc(C)c4)c3C)C(=O)N=C2S1 the “activity change, negative = cytotoxicity” value was inactive: -10.9%. For COc1ccccc1-c1cnc(C(O)c2ccc(Cl)cc2C)[nH]1 (stereo not given), the Potency was inconclusive: 18.4 µM [cytotoxic, partial curve]. In the case of Cc1ccc(-c2csc(-c3cc4c([nH]c3=O)CC(c3ccccc3)CC4=O)n2)cc1 (stereo not given), the Potency is reported as inconclusive: 0.58 µM [cytotoxic, full curve, poor fit]. For CC(NC(=O)Nc1cccc([N+](=O)[O-])c1)(C(F)(F)F)C(F)(F)F, the Potency was inconclusive: 29.1 µM [cytotoxic, partial curve, poor fit]. With CC1CCCN(c2nc3c(-c4ccc(Cl)cc4)nnn3c3ccccc23)C1 (stereo not given) the “activity change, negative = cytotoxicity” value was inactive: 22.4%. For CCc1ccccc1NC(=O)Nc1cccs1, the Potency was inconclusive: 0.651 µM [rising, full curve, poor fit]. In the case of COC(=O)c1scc(C)c1NC(=O)c1ccc(Cl)cc1, the “activity change, negative = cytotoxicity” value is reported as inactive: -2.43%. For O=C(c1cc(S(=O)(=O)N2CCOCC2)c(Cl)cc1Cl)N1CCCCC1, the Potency was inconclusive: 23.1 µM [cytotoxic, partial curve]. For CC(C)c1ccc(COC(=O)CN2C(=O)NC3(CCCCC3C)C2=O)cc1 (stereo not given), the Potency was inconclusive: 18.4 µM [cytotoxic, single point]. For CCN(CC)S(=O)(=O)c1ccc2c(c1)N(CC(=O)NCc1ccccc1)C(=O)C1CCCCN21 (stereo not given), the “activity change, negative = cytotoxicity” value was inactive: -13.1%. With OCCCNCc1ccc(N(c2ccccc2)c2ccccc2)cc1 the Potency was inconclusive: 18.4 µM [cytotoxic, partial curve, poor fit]. In the case of Cc1cccc(C(c2c(C)nn(-c3ccccc3)c2N)c2c(C)nn(-c3ccccc3)c2N)c1, the Potency is reported as inconclusive: 0.82 µM [cytotoxic, full curve, poor fit]. With Cc1ccc(N(C(=O)c2sc(C)nc2C)C(C(=O)NCc2ccco2)c2ccccc2)cc1 (stereo not given) the “activity change, negative = cytotoxicity” value was inactive: -19.9%. For COc1cc(Cl)c(CN2CCCC(CO)(Cc3ccccc3F)C2)cc1OC (stereo not given), the Potency was inconclusive: 16.4 µM [cytotoxic, single point]. With CCC(COC)NCc1cn(-c2ccc(OC)cc2)nc1-c1cccc(F)c1 (stereo not given) the Potency was active: 5.17 µM. For c1ccc(Nc2nc(N3CCNCC3)nc(N3CCOCC3)n2)cc1, the Potency was inconclusive: 29.1 µM [cytotoxic, single point]. With CC(C)N(C(=O)CN(C#N)c1nc(N(C)C)nc(N(C)C)n1)c1ccccc1 the Potency was active: 6.51 µM. In the case of COc1ccc(NC(=O)CN(c2cc(C)cc(C)c2)S(=O)(=O)c2c(C)noc2C)cc1, the Potency is reported as inconclusive: 11.6 µM [cytotoxic, partial curve]. For CCN(CC)S(=O)(=O)c1cc(NC(=O)c2ccccc2OCc2c(C)noc2C)ccc1C, the Potency was active: 7.31 µM. With Cc1ccc(/C=C/C(=O)OCC(=O)NCc2ccc(Cl)cc2)o1 the Potency was inconclusive: 29.1 µM [rising, single point]. With Cc1cc(O)ccc1NC1=CC(=O)CC(C)(C)C1 the Potency was inconclusive: 4.11 µM [rising, partial curve, poor fit]. In the case of CCCCCN=Cc1c(C)[nH]n(-c2nc3ccccc3s2)c1=O, the Potency is reported as active: 2.31 µM. For Cc1sc2ncnc(OCc3nnc(-c4cccs4)o3)c2c1C, the Potency was inconclusive: 6.51 µM [cytotoxic, partial curve]. With Cc1ccccc1-c1nnnn1C1CCS(=O)(=O)C1 (stereo not given) the Potency was inconclusive: 18.4 µM [rising, single point]. With O=C(Oc1ccccc1/C=C\C(=O)c1cc2ccccc2o1)c1ccccc1 the “activity change, negative = cytotoxicity” value was inactive: -8.15%. For Cc1cc(C)c(NC(=S)N(CCCN2CCN(C)CC2)Cc2cccs2)c(C)c1, the Potency was inconclusive: 6.51 µM [cytotoxic, partial curve]. For Cc1ccc(S(=O)(=O)Nc2nc(C)c(C)s2)cc1, the “activity change, negative = cytotoxicity” value was inactive: 26.9%. For COc1cc(-c2nnc(SCC(=O)c3cc(C)n(CC4CCCO4)c3C)o2)cc(OC)c1OC (stereo not given), the Potency was active: 18.4 µM. In the case of Cc1ccc(-c2nc(SCC(=O)Nc3cc(S(=O)(=O)N4CCCCC4)ccc3Cl)n[nH]2)cc1, the Potency is reported as active: 16.4 µM. With CC(=O)N1N=C(N)SC1(C)C the Potency was inconclusive: 29.1 µM [cytotoxic, single point]. In the case of O=C(Nc1nc2cc3c(cc2s1)OCCO3)C1=COCCO1, the “activity change, negative = cytotoxicity” value is reported as inactive: -0.1%. In the case of COc1ccc2nc(Nc3nc(CSc4nnnn4-c4ccccc4)cc(=O)[nH]3)nc(C)c2c1, the Potency is reported as active: 16.4 µM. For N#Cc1ccccc1NC(=O)C(=O)NCC1CCCN1S(=O)(=O)c1cccs1 (stereo not given), the Potency was inconclusive: 13 µM [cytotoxic, partial curve, poor fit]. In the case of O=C(c1ccc2c(c1)N(Cc1ccccc1F)C(=O)c1ccccc1S2(=O)=O)N1CCN(c2ccccn2)CC1, the “activity change, negative = cytotoxicity” value is reported as inactive: -24.3%. With O=C(c1noc2c1CCc1ccccc1-2)N1CCOCC1 the Potency was active: 16.4 µM. In the case of Cc1csc(SCC(=O)Nc2cc(F)ccc2C)n1, the Potency is reported as inconclusive: 29.1 µM [cytotoxic, single point]. For OCCCN1c2ccccc2Nc2nnc(-c3ccccc3)cc21, the Potency was inconclusive: 16.4 µM [cytotoxic, single point]. In the case of COc1cc(OC)cc(C(=O)NCCCCNC(=O)c2cc(OC)cc(OC)c2)c1, the Potency is reported as inconclusive: 29.1 µM [cytotoxic, single point]. For Cc1ccc(NC(=S)NNC(=O)c2cn(C)nc2C)cc1, the “activity change, negative = cytotoxicity” value was inactive: 18.7%. For O=C(NC(=O)c1c(F)cccc1F)Nc1cccc(Oc2ncc(Cl)cn2)c1, the Potency was inconclusive: 2.06 µM [cytotoxic, full curve, poor fit]. For CCOC(=O)C1=CCN(S(=O)(=O)c2ccccc2[N+](=O)[O-])C1c1ccc(C)cc1 (stereo not given), the “activity change, negative = cytotoxicity” value was inactive: 0.546%. For Cc1ccccc1Nc1nc(-c2cccnc2)cs1, the Potency was inconclusive: 32.6 µM [cytotoxic, single point]. With Cc1ccc(Nc2ncc3c(=O)[nH][nH]c(=O)c3n2)cc1 the “activity change, negative = cytotoxicity” value was inactive: -0.0092%. For CN1CCN(CCOCCOc2ccc(Br)cc2Cl)CC1, the “activity change, negative = cytotoxicity” value was inactive: -6.07%. For Cc1cccc(C)c1NC(=S)NC1CCCCC1, the Potency was inconclusive: 18.4 µM [cytotoxic, single point]. With CCOC(=O)C1=CC[C@@H](c2ccccc2)N(S(=O)(=O)c2ccc(C)cc2)[C@H]1c1ccccc1C the Potency was inconclusive: 8.2 µM [cytotoxic, partial curve, poor fit]. With COc1cccc(CN(C)CC(=O)Nc2ccccc2C(=O)Nc2ccccc2)c1OC the Potency was inconclusive: 23.1 µM [cytotoxic, single point]. In the case of COc1ccc(NC(=O)CSc2nnnn2C)cc1S(=O)(=O)N1CCCCC1, the Potency is reported as inconclusive: 23.1 µM [rising, single point]. With Cc1cc(SCC(=O)N/N=C/c2ccc(O)c(O)c2O)c(C)cc1Br the Potency was inconclusive: 13 µM [cytotoxic, partial curve]. For Clc1ccc2nc(C3CCCCC3)c(CC3CCCCC3)n2c1, the Potency was inconclusive: 29.1 µM [cytotoxic, single point]. With Cc1cc(C)c(C#N)c(Nc2ccccc2F)n1 the Potency was inconclusive: 23.1 µM [rising, single point]. For Cc1c(Cl)cccc1NS(=O)(=O)c1ccc(-c2cnc(C3CC3)o2)cc1, the Potency was inconclusive: 2.91 µM [cytotoxic, partial curve]. For CC(C)C[C@H](N)C(=O)N1CCC(C(=O)N[C@H](C(=O)NCc2ccc(F)cc2)C(C)C)CC1, the “activity change, negative = cytotoxicity” value was inactive: -5.05%. For C[C@H](CO)N1C[C@H](C)[C@@H](CN(C)S(=O)(=O)c2ccccc2)Oc2c(NC(=O)Cc3ccccc3)cccc2C1=O, the Potency was inconclusive: 5.17 µM [rising, single point]. With COc1ccc(Oc2nc(-c3ccccn3)nc3ccccc23)cc1 the Potency was inconclusive: 6.51 µM [cytotoxic, full curve, poor fit]. For O=C(COC(=O)C1=COCCO1)NCc1ccc(Cl)cc1Cl, the Potency was inconclusive: 29.1 µM [rising, single point]. With CC(C)CCN(C(=O)c1csnn1)C(C(=O)NC1CCCC1)c1ccccc1 (stereo not given) the Potency was inconclusive: 5.8 µM [cytotoxic, partial curve].
